Assay results reported in patent publication US20130035243A1.
These are yes or no findings as the source states them, for the method shown. In cells and extracts the contact can be indirect. Some binding calls cover weakened binding; strength is not graded here.

Sequences of proteins named here, by UniProt entry; tags and fusion partners are left off. A change or cut given only in a name is not applied to a line headed by its entry.
UniProt Q99612: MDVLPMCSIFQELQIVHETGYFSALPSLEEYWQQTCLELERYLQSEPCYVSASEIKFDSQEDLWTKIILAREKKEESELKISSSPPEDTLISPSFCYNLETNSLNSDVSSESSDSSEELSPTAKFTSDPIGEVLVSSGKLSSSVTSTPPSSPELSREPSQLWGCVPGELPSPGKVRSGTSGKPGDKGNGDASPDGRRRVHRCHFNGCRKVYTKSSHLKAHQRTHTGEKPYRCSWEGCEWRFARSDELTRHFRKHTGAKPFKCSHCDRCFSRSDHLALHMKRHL

What was measured:
[1] = biological target: HA-wtKLF6 (wild type, full length KLF6 with an additional HA tag) (human) (UniProt Q99612); test: co-immunoprecipitation from cotransfected 293T cells (FLAG/HA beads), Western blot
[2] = biological target: HA-wtKLF6 (wild type, full length KLF6 with an additional HA tag) (human) (UniProt Q99612); test: co-immunoprecipitation from cotransfected 293T cells, Western blot

## FLAG-KLF6SV2 (FLAG-tagged KLF6 splice variant-2) (from UniProt Q99612 1-283)
[1]
  binding: binds
[2]
  binding: binds
